In patent US9556231B2 (POLYPHOR AG, priority 2011, dated 2017):

Assay: general procedure: Fmoc solid-phase peptide synthesis; Fmoc-Pro-2-chlorotrityl resin
Conditions: whole synthesis, UV 220 nm

Final HPLC purity, 95%:
Pro^16-^DPro^15-Lys(iPr)^14-Gln^13-Tyr^12-Cys^1-Tyr^10-Arg^9-Orn(iPr)^8-^DTyr^7-Ala^6-Ser^5-Cys^4-Tyr^3-His^2-Tyr^1
Pro^16-^DPro^15-Lys(iPr)^14-Gln^13-Tyr^12-Cys^11-Tyr^10-Arg^9-Dab^8-^DTyr^7-Ala^6-Ser^5-Cys^4-Ala^3-His^2-Tyr^1
Pro^16-^DPro^15-Lys(iPr)^14-Gln^13-Tyr^12-Cys^11-Tyr^10-Arg^9-Orn(iPr)^8-^DPro^7-Ala^6-Ser^5-Cys^4-Tyr(Me)^3-His^2-Tyr^1
Pro^16-^DPro^15-Lys(iPr)^14-Gln^13-Tyr^12-Cys^11-Tyr^10-Arg^9-Orn(iPr)^8-^DPro^7-Ala^6-Ser^5-Cys^4-Tyr^3-His^2-Tyr^1
Pro^16-^DPro^15-Lys(iPr)^14-Gln^13-Tyr^12-Cys^11-Tyr^10-Arg^9-Orn(iPr)^8-^DTyr(Me)^7-Ala^6-Ser^5-Cys^4-Ala^3-His^2-Tyr^1
Pro^16-^DPro^15-Lys(iPr)^14-Gln^13-Tyr^12-Cys^11-Tyr^10-Arg^9-Orn(iPr)^8-^DTyr(Me)^7-Ala^6-Ser^5-Cys^4-Tyr(Me)^3-His^2-Tyr^1

One purity is given for all peptides; the source may state it once.
